In paper doi:10.1101/806802:
Results are given in words; binding and its absence hold for the method and conditions named. Binding can be weak; no strength is given.

Target: RIN4b of soybean (GmRIN4b), GAL4 DNA-binding domain fusion in pBridge (soybean) (UniProt C6TH04)
Assay: yeast three-hybrid

Q: For “AvrB, bacterial effector of Pseudomonas syringae, GAL4 activation domain fusion (from UniProt P13835 1-321)”, which binding is on record?
A: binds
